In this test the target is T1, N-terminally biotinylated active region of PNP-A synthetic peptide (Arabidopsis thaliana) (UniProt Q9ZV52).
T1 sequence (peptide, biotin on the N-terminus): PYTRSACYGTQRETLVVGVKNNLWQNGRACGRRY
Nature of the test: affinity purification with mass spectrometry.

No constants are given. Whether binding was seen depends on the method and setting. Binding seen in cells or lysates may run through a third protein. A yes stands for co-enrichment or nearness to the bait. Other partners may have been found. A no says only that the protein was not detected with the bait.

On to PNP-R1, endogenous (receptor), for which the binding entry was “no binding”.
Turning to “PNP-A receptor protein (PNPAR), endogenous”, the binding entry is on record as “binds”.

The values above are taken from paper doi:10.1101/592881.
